# Experimental data: PubChem BioAssay AID1508597 (Cure First, 2020)
# Test: 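Genes whose silencing sensitises or protects ovarian cancer cells against rucaparib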 (primary screen)
# Cell system: human ovarian carcinoma lines grown from tumours: OCI-P5x (papillary serous) and OCI-C5x (clear cell)
# Reagent: siRNA pool against human genes, 1.25 pmol siRNA per well
# Timing: 72 h or 96 h, depending on the cell culture
# Treatment: rucaparib 20 µM (about IC30) or vehicle, present until read-out
# Rucaparib or vehicle: Rucaparib
# Cell line: OCI-C5x (clear cell)
# Read-out: 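Luminescent ATP-based viability assay read 72 or 96 h after transfection, depending on culture, given as normalised percent viability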
# Reading the numbers: viability, normalised: higher = more viable cells remaining
# Active means: 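Active when normalised viability falls below 80 percent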
# Calls: active = viability under 80%; inactive = viability 80% or more
# This is a random part of the about 2,100 reagents, in one setting of the screen. 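Calls flag viability under 80% in either arm, not effects specific to rucaparib; the reference for percent is not stated.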 Some reagents were tested in more than one well and are listed for each. Not stated in the record: the 100% reference.
gene,technical replicate,"viability, normalised (%)",call
NAP1L4 (nucleosome assembly protein 1 like 4),1,43.2,active
NAP1L4 (nucleosome assembly protein 1 like 4),2,55.7,active
NAP1L4 (nucleosome assembly protein 1 like 4),3,37.8,active
LHCGR (luteinizing hormone/choriogonadotropin receptor),1,37.5,active
LHCGR (luteinizing hormone/choriogonadotropin receptor),2,43.5,active
LHCGR (luteinizing hormone/choriogonadotropin receptor),3,49.6,active
POLM (DNA polymerase mu),1,48.2,active
POLM (DNA polymerase mu),2,55.7,active
POLM (DNA polymerase mu),3,64.6,active
DCLK3 (doublecortin like kinase 3),1,72.4,active
DCLK3 (doublecortin like kinase 3),2,63.4,active
DCLK3 (doublecortin like kinase 3),3,48.5,active
TRIM33 (tripartite motif containing 33),1,71.2,active
TRIM33 (tripartite motif containing 33),1,66.6,active
TRIM33 (tripartite motif containing 33),2,64.4,active
TRIM33 (tripartite motif containing 33),2,45.6,active
TRIM33 (tripartite motif containing 33),3,52.2,active
TRIM33 (tripartite motif containing 33),3,50.1,active

The list goes on; the last 5 above are carried over.
gene,technical replicate,"viability, normalised (%)",call
TRIM33 (tripartite motif containing 33),1,66.6,active
TRIM33 (tripartite motif containing 33),2,64.4,active
TRIM33 (tripartite motif containing 33),2,45.6,active
TRIM33 (tripartite motif containing 33),3,52.2,active
TRIM33 (tripartite motif containing 33),3,50.1,active
GNE,1,61.4,active
GNE,2,84.3,inactive
GNE,3,69.7,active
NOG (noggin),1,44.8,active
NOG (noggin),2,37,active
NOG (noggin),3,31.6,active
RCOR3 (REST corepressor 3),1,65.6,active
RCOR3 (REST corepressor 3),2,51.4,active
RCOR3 (REST corepressor 3),3,57.1,active
ADCK5 (aarF domain containing kinase 5),1,30.5,active
ADCK5 (aarF domain containing kinase 5),2,56.2,active
ADCK5 (aarF domain containing kinase 5),3,54.4,active
TTN (titin),1,65.7,active
TTN (titin),2,59,active
TTN (titin),3,71.3,active
MARK1 (microtubule affinity regulating kinase 1),1,48.9,active
MARK1 (microtubule affinity regulating kinase 1),2,61.9,active
MARK1 (microtubule affinity regulating kinase 1),3,44,active
TREX1 (three prime repair exonuclease 1),1,51.4,active
TREX1 (three prime repair exonuclease 1),2,43,active
TREX1 (three prime repair exonuclease 1),3,46.6,active
